In paper PMC6997364:
No constants are given. Whether binding was seen depends on the method and setting. Binding seen in cells or lysates may run through a third protein. Some results given as binding are weak or reduced against the parent protein; the word gives no strength. For some assays here: Where a sequence is shown, tags or fusion partners need not be part of it.

Sequences of proteins named here, by UniProt entry; tags and fusion partners are left off. Residues count along the entry.
UniProt P15703, residues 24-313: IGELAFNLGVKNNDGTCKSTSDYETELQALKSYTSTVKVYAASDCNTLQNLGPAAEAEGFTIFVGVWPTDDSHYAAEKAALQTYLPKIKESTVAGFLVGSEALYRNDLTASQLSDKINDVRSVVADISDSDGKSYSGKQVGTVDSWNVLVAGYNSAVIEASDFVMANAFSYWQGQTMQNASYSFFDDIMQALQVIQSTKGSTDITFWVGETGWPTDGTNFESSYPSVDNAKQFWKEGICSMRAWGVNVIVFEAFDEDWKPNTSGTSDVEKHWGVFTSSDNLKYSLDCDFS

Key:
[1] = target: T1, Rvs161 fused at its C-terminus with the VN or VC part of Venus YFP (S. cerevisiae) (UniProt P25343); test: split reporter; BiFC with VN and VC parts of Venus YFP in living diploid yeast cells in early exponential growth, 30 °C, whole cells at various stages of the cell cycle (wild-type and rvs161Δ cells)
T1 sequence: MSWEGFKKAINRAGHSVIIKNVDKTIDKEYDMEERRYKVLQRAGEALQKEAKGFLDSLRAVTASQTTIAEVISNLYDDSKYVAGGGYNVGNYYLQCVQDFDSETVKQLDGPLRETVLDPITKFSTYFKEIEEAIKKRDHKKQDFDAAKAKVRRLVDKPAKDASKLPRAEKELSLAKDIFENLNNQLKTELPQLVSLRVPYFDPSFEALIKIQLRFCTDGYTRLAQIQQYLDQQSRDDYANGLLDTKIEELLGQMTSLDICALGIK

[2] = target: T2, Gvp36 fused at its C-terminus with the VN or VC part of Venus YFP (S. cerevisiae) (UniProt P40531); test: as above
T2 sequence: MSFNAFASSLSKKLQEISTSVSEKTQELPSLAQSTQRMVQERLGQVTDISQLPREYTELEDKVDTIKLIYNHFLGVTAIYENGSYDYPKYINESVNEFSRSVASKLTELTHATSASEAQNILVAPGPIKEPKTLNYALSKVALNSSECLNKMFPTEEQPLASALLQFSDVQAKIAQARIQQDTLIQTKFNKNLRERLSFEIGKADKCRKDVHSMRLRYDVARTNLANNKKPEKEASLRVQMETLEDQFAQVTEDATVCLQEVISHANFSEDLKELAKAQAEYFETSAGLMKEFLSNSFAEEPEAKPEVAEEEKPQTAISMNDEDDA

[3] = target: Rvs167 fused at its C-terminus with the VN or VC part of Venus YFP (S. cerevisiae) (UniProt P39743); test: as above
[4] = target: T1, Rvs161 fused at its C-terminus with the VN or VC part of Venus YFP (S. cerevisiae); test: split reporter; BiFC in living diploid yeast cells, scored only at the tip of small buds (ratio of bud width to bud neck width ≤ 1)
[5] = target: T2, Gvp36 fused at its C-terminus with the VN or VC part of Venus YFP (S. cerevisiae); test: as above
[6] = target: T3, Gyl1-HA (S. cerevisiae) (UniProt Q04322); test: co-IP; total extracts of log-phase yeast cells co-expressing the tagged proteins (rvs167Δrvs161Δ, rvs167Δgvp36Δ, rvs161Δgvp36Δ, rvs167Δ, rvs167Δrvs161Δgvp36Δ or diploid cells); lysis buffer 20 mM Tris-HCl pH 7.5, 100 mM NaCl, 1 mM EDTA, 0.5% Triton X-100; anti-Myc, anti-HA, anti-GFP or anti-VSV antibody and protein G-agarose, 4 °C; washes up to 300 mM NaCl
T3 sequence: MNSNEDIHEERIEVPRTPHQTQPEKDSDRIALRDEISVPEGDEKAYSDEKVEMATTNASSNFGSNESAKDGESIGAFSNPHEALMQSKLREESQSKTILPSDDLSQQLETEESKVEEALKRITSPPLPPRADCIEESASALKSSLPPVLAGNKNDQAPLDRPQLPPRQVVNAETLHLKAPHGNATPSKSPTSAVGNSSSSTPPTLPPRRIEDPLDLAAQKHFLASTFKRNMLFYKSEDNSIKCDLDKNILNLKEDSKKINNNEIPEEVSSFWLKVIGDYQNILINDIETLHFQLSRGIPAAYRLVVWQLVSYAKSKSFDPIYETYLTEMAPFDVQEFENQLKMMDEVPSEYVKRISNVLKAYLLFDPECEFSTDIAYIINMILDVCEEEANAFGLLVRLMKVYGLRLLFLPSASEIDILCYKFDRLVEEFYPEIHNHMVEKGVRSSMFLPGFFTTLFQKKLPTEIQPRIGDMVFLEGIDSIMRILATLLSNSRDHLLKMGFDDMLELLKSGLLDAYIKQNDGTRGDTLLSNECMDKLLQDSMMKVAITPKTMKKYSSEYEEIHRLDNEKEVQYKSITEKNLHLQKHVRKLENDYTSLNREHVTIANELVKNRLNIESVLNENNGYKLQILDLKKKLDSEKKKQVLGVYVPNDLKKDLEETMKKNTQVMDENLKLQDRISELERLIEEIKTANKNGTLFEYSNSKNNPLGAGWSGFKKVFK

[7] = target: T4, Gyp5-Myc (S. cerevisiae) (UniProt Q12344); test: as above
T4 sequence: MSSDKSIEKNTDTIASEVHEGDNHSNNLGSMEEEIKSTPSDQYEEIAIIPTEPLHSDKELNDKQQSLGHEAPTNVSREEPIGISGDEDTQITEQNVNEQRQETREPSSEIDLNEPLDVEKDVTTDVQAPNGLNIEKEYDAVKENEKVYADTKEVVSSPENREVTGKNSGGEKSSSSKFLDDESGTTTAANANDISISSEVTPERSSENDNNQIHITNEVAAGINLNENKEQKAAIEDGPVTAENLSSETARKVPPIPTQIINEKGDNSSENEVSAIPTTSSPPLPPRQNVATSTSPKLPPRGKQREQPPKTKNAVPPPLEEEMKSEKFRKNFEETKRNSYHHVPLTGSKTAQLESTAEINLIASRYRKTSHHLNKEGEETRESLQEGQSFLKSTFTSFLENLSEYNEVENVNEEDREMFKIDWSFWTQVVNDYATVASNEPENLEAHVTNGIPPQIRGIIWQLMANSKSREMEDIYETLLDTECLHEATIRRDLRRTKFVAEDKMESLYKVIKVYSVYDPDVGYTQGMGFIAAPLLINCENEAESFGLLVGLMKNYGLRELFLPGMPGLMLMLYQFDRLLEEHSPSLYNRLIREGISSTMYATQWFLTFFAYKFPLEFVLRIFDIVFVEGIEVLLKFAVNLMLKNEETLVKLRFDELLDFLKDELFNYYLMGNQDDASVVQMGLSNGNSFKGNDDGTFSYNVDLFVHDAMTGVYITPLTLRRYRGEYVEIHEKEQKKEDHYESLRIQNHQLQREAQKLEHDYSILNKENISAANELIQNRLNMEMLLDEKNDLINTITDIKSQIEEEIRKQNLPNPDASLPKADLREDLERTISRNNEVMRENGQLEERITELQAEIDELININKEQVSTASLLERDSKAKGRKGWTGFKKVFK

[8] = target: T5, Gyp5-VN (S. cerevisiae) (UniProt Q12344); test: split reporter; BiFC with VN and VC parts of Venus YFP in living diploid yeast cells in early exponential growth, 30 °C, whole cells at various stages of the cell cycle (wild-type and rvs161Δ cells)
T5 sequence: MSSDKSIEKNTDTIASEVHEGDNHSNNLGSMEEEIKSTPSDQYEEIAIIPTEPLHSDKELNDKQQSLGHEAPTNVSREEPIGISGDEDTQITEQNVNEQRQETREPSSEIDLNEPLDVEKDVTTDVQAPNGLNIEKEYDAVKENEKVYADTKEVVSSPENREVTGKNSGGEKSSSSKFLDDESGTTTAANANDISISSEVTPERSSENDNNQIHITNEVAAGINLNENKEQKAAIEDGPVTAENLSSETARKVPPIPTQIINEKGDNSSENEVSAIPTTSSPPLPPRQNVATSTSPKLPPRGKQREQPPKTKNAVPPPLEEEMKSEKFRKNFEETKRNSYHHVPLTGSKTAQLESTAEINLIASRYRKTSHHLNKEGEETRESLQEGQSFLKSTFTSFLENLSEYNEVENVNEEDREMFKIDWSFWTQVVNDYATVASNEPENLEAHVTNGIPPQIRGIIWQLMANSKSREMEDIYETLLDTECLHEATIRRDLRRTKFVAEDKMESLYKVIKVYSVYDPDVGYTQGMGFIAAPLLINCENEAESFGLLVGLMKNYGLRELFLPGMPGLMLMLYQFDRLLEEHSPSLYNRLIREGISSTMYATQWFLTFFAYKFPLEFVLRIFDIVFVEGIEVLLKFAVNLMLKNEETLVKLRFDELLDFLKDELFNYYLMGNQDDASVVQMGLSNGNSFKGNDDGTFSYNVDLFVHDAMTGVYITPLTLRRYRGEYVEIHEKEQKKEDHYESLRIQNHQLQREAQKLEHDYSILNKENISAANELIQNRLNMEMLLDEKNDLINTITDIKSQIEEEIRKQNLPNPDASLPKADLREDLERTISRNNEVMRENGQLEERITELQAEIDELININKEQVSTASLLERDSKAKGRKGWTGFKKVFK

[9] = target: T5, Gyp5-VN (S. cerevisiae); test: split reporter; BiFC in living diploid yeast cells, scored only at the tip of small buds (ratio of bud width to bud neck width ≤ 1)
[10] = target: T6, VSV-Rvs161 (S. cerevisiae) (UniProt P25343); test: co-IP; total extracts of log-phase yeast cells co-expressing the tagged proteins (rvs167Δrvs161Δ, rvs167Δgvp36Δ, rvs161Δgvp36Δ, rvs167Δ, rvs167Δrvs161Δgvp36Δ or diploid cells); lysis buffer 20 mM Tris-HCl pH 7.5, 100 mM NaCl, 1 mM EDTA, 0.5% Triton X-100; anti-Myc, anti-HA, anti-GFP or anti-VSV antibody and protein G-agarose, 4 °C; washes up to 300 mM NaCl
T6 sequence: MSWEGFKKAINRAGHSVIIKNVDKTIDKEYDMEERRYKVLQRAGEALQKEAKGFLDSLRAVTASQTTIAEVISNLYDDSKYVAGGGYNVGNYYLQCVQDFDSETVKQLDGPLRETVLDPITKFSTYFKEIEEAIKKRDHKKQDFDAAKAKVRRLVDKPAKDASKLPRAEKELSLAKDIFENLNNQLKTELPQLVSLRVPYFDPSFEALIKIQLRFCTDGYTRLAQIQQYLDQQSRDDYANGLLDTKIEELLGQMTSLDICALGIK

Rvs167 fused at its C-terminus with the VN or VC part of Venus YFP (from UniProt P39743 1-482)
binding [1]: binds | binding [2]: binds | binding [3]: binds | binding [4]: binds | binding [5]: binds

VSV-Rvs167 (from UniProt P39743 1-482)
binding [6]: binds | binding [7]: binds

endo-β1,3-glucanase Bgl2 (BiFC fusion, negative control) (from UniProt P15703 24-313)
binding [1]: no binding | binding [3]: no binding

nucleoporin Nic96 (BiFC fusion, negative control) (from UniProt P34077 1-839)
binding [1]: no binding | binding [3]: no binding

B1: Rvs161 fused at its C-terminus with the VN or VC part of Venus YFP (protein, UniProt P25343 1-265)
chain: MSWEGFKKAINRAGHSVIIKNVDKTIDKEYDMEERRYKVLQRAGEALQKEAKGFLDSLRAVTASQTTIAEVISNLYDDSKYVAGGGYNVGNYYLQCVQDFDSETVKQLDGPLRETVLDPITKFSTYFKEIEEAIKKRDHKKQDFDAAKAKVRRLVDKPAKDASKLPRAEKELSLAKDIFENLNNQLKTELPQLVSLRVPYFDPSFEALIKIQLRFCTDGYTRLAQIQQYLDQQSRDDYANGLLDTKIEELLGQMTSLDICALGIK
binding [8]: binds | binding [2]: binds | binding [9]: binds weakly

B2: Gvp36 fused at its C-terminus with the VN or VC part of Venus YFP (protein, UniProt P40531 1-326)
chain: MSFNAFASSLSKKLQEISTSVSEKTQELPSLAQSTQRMVQERLGQVTDISQLPREYTELEDKVDTIKLIYNHFLGVTAIYENGSYDYPKYINESVNEFSRSVASKLTELTHATSASEAQNILVAPGPIKEPKTLNYALSKVALNSSECLNKMFPTEEQPLASALLQFSDVQAKIAQARIQQDTLIQTKFNKNLRERLSFEIGKADKCRKDVHSMRLRYDVARTNLANNKKPEKEASLRVQMETLEDQFAQVTEDATVCLQEVISHANFSEDLKELAKAQAEYFETSAGLMKEFLSNSFAEEPEAKPEVAEEEKPQTAISMNDEDDA
binding [8]: binds | binding [9]: binds weakly

B3: Gyp5-Myc (protein, UniProt Q12344 1-894)
chain: MSSDKSIEKNTDTIASEVHEGDNHSNNLGSMEEEIKSTPSDQYEEIAIIPTEPLHSDKELNDKQQSLGHEAPTNVSREEPIGISGDEDTQITEQNVNEQRQETREPSSEIDLNEPLDVEKDVTTDVQAPNGLNIEKEYDAVKENEKVYADTKEVVSSPENREVTGKNSGGEKSSSSKFLDDESGTTTAANANDISISSEVTPERSSENDNNQIHITNEVAAGINLNENKEQKAAIEDGPVTAENLSSETARKVPPIPTQIINEKGDNSSENEVSAIPTTSSPPLPPRQNVATSTSPKLPPRGKQREQPPKTKNAVPPPLEEEMKSEKFRKNFEETKRNSYHHVPLTGSKTAQLESTAEINLIASRYRKTSHHLNKEGEETRESLQEGQSFLKSTFTSFLENLSEYNEVENVNEEDREMFKIDWSFWTQVVNDYATVASNEPENLEAHVTNGIPPQIRGIIWQLMANSKSREMEDIYETLLDTECLHEATIRRDLRRTKFVAEDKMESLYKVIKVYSVYDPDVGYTQGMGFIAAPLLINCENEAESFGLLVGLMKNYGLRELFLPGMPGLMLMLYQFDRLLEEHSPSLYNRLIREGISSTMYATQWFLTFFAYKFPLEFVLRIFDIVFVEGIEVLLKFAVNLMLKNEETLVKLRFDELLDFLKDELFNYYLMGNQDDASVVQMGLSNGNSFKGNDDGTFSYNVDLFVHDAMTGVYITPLTLRRYRGEYVEIHEKEQKKEDHYESLRIQNHQLQREAQKLEHDYSILNKENISAANELIQNRLNMEMLLDEKNDLINTITDIKSQIEEEIRKQNLPNPDASLPKADLREDLERTISRNNEVMRENGQLEERITELQAEIDELININKEQVSTASLLERDSKAKGRKGWTGFKKVFK
binding [10]: binds
